Test [1] addresses HA-tagged MAVS, full length (pcDNA3.1-MAVS-HA) (UniProt Q7Z434). Kind of test: co-IP.
Test [2] deals with Myc-tagged SYVN1, full length (pcDNA3.1-SYVN1-myc) (UniProt Q86TM6). The experiment in a line: co-IP.

Sequences of proteins named here, by UniProt entry; tags and fusion partners are left off.
UniProt Q7Z434: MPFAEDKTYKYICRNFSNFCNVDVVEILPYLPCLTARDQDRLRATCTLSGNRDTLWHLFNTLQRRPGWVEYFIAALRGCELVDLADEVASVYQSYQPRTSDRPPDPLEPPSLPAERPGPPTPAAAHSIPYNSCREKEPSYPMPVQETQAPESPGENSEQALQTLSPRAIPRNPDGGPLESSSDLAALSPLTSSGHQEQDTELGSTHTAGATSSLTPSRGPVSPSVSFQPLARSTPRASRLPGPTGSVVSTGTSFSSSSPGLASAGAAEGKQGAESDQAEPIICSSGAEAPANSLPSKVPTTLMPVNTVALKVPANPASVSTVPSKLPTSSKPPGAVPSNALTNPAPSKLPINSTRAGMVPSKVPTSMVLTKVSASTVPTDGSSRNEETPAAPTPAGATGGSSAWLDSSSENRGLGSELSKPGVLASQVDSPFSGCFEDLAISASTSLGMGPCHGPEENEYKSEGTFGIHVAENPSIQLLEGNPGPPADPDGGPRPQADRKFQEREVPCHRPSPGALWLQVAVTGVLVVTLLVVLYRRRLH
UniProt Q86TM6: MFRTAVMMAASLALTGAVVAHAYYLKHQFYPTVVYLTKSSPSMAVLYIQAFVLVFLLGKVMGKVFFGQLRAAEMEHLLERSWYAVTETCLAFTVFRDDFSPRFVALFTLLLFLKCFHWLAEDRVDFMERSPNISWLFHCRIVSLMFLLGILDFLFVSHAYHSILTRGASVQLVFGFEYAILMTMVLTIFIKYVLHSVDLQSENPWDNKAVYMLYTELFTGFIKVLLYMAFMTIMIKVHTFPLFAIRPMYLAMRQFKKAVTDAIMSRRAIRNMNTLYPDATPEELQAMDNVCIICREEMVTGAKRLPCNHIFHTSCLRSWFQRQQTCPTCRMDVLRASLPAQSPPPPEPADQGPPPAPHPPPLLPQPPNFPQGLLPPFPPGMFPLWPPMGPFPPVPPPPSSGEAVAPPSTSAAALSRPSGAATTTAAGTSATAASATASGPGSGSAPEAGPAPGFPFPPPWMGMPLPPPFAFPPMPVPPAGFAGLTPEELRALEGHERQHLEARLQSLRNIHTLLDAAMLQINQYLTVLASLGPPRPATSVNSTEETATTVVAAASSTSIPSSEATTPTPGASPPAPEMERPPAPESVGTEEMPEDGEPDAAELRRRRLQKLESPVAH

The source of these data is article PMC7499204.

No constants are given. Whether binding was seen depends on the method and setting. In cells and extracts the contact can be indirect. Some results given as binding are weak or reduced against the parent protein; the word gives no strength. Tags and fused reporters may be left off the sequences shown.

B1: Mfn2(HR1)-Flag, 4,3 hydrophobic heptad repeat (HR1) region of Mfn2 (amino acid residues 369-598) (domain or fragment, UniProt O95140 369-598)
chain: AEAVRLIMDSLHMAAREQQVYCEEMREERQDRLKFIDKQLELLAQDYKLRIKQITEEVERQVSTAMAEEIRRLSVLVDDYQMDFHPSPVVLKVYKNELHRHIEEGLGRNMSDRCSTAITNSLQTMQQDMIDGLKPLLPVSVRSQIDMLVPRQCFSLNYDLNCDKLCADFQEDIEFHFSLGWTMLVNRFLGPKNSRRALMGYNDQVQRPIPLTPANPSMPPLPQGSLTQEE
As for B1, the binding result in test [1] and in test [2] was “binds” in each case.
